In patent US20130096115A1, “METHODS FOR TREATING AUTISM” (AFRAXIS, INC., priority 2009, published 2013):
At least one compound was matched to its structure with a doubt left.

System: double transgenic GFP-M/DN-DISC1 mice
Experiment: In vivo two photon monitoring of dendritic spine plasticity in GFP-M/DN-DISC1 mice
Parameters: species or system mouse
Details: oral gavage 1 mg/kg once per day

Cc1[nH]c(/C=C2\C(=O)Nc3ccc(F)cc32)c(C)c1C(=O)NC[C@H](O)CN1CCOCC1 [SU14813]
spine morphology relative to untreated control animals: rescue defective spine morphology
